The supplement of paper PMC11732987, “Enantioselective OTUD7B fragment discovery through chemoproteomics screening and high-throughput optimisation” (Communications Chemistry, 2025)
The other results are listed elsewhere or left out. The data scatter; read single values as rough.

Amino acid sequences for entries named in this document (tags omitted). A change or cut given only in a name is not applied to a line headed by its entry.
UniProt P35998: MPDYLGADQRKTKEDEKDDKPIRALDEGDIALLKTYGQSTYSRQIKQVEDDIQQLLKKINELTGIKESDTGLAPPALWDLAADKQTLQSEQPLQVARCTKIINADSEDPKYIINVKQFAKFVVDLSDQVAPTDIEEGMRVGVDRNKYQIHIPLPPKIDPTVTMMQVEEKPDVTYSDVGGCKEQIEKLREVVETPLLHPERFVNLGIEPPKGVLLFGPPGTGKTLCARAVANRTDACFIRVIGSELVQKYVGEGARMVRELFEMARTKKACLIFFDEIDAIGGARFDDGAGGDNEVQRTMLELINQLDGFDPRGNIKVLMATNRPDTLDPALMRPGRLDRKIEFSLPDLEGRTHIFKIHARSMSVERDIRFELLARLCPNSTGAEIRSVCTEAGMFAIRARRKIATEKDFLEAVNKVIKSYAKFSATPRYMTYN
UniProt Q15032: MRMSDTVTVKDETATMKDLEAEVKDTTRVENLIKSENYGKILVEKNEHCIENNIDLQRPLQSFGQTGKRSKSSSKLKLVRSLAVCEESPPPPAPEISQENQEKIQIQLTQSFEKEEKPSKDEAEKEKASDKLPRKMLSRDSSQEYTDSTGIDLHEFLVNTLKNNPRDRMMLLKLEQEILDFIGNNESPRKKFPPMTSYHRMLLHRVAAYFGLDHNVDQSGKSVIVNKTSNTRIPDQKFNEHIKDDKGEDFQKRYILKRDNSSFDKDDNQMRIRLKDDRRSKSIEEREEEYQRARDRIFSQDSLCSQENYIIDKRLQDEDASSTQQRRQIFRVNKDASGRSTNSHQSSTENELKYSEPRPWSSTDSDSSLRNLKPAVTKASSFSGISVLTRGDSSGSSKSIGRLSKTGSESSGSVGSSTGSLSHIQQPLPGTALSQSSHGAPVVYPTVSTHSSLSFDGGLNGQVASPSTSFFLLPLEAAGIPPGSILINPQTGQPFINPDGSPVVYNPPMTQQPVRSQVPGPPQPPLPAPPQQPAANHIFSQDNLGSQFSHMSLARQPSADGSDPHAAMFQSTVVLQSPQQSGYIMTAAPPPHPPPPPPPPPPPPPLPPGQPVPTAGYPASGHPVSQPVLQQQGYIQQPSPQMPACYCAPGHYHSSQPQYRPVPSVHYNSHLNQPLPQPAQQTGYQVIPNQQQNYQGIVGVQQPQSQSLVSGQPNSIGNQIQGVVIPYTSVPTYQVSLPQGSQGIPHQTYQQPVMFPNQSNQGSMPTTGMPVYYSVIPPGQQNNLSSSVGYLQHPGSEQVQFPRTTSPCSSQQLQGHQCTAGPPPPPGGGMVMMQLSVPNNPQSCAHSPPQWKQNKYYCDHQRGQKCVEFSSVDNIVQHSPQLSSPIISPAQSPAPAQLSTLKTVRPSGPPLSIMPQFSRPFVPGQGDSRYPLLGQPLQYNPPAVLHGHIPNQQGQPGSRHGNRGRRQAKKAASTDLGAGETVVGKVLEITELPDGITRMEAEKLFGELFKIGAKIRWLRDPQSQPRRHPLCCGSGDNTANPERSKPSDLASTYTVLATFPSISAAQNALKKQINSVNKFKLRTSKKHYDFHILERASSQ
UniProt O95758: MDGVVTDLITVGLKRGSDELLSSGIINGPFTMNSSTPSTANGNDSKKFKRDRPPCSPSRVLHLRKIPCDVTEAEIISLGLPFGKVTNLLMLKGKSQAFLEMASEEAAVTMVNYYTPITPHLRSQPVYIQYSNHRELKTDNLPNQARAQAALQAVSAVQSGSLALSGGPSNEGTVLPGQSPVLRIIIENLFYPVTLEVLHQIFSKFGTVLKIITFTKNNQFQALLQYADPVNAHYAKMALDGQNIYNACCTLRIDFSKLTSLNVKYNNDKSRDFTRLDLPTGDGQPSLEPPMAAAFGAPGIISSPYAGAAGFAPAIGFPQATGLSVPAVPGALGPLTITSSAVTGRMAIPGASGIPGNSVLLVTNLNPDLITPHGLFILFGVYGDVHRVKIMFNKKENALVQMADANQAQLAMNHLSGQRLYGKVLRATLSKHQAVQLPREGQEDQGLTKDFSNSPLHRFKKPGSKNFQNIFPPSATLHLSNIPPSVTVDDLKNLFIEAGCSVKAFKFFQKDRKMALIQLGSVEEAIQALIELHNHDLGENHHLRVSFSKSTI
UniProt A2A3K4: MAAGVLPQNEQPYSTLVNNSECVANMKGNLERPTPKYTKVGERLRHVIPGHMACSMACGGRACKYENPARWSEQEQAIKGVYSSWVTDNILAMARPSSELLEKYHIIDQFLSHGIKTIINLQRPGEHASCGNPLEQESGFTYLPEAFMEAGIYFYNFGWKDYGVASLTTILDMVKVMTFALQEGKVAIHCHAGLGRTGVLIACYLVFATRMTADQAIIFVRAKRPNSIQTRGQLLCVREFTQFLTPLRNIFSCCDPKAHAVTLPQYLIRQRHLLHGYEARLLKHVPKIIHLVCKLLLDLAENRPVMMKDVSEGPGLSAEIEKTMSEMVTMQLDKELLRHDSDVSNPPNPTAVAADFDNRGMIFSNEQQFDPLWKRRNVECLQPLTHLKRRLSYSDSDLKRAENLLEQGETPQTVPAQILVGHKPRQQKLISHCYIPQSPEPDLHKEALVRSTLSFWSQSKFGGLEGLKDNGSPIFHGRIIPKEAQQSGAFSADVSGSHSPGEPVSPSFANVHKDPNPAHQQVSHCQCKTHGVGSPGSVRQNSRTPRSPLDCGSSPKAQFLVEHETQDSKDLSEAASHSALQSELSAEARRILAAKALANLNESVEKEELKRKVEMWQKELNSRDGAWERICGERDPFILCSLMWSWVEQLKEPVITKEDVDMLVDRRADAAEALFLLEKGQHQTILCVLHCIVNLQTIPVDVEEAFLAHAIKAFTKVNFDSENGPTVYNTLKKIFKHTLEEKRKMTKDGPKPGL
UniProt Q96QR8: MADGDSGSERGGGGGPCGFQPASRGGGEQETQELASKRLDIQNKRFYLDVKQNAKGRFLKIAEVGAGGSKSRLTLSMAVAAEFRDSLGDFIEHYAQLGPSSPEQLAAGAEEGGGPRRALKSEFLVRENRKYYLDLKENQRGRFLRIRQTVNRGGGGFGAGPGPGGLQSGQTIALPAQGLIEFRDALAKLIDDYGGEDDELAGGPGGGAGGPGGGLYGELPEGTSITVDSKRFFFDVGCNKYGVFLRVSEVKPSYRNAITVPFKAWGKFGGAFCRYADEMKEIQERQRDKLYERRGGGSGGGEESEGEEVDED
UniProt O60216: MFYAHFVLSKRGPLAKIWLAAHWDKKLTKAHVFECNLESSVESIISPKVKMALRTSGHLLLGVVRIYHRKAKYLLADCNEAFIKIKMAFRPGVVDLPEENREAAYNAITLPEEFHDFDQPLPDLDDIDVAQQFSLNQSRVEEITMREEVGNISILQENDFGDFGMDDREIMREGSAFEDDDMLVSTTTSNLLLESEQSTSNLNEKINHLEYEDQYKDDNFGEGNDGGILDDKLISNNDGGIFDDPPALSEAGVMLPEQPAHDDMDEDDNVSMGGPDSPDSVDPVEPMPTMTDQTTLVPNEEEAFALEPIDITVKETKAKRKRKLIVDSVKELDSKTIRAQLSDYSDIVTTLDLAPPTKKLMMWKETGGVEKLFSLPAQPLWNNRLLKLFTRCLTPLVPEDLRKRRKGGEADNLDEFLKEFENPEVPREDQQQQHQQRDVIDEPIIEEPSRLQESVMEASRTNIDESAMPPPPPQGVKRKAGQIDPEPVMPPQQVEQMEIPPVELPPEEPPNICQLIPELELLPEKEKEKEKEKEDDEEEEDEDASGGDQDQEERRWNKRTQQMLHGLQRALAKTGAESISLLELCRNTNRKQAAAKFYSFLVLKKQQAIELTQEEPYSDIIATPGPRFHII
UniProt P20337: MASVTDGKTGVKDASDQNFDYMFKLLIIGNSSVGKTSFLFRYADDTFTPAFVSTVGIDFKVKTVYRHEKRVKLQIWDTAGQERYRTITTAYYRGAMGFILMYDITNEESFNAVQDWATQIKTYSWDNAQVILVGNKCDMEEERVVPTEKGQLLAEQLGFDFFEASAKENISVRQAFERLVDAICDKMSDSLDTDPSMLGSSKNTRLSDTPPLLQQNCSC
UniProt Q15042: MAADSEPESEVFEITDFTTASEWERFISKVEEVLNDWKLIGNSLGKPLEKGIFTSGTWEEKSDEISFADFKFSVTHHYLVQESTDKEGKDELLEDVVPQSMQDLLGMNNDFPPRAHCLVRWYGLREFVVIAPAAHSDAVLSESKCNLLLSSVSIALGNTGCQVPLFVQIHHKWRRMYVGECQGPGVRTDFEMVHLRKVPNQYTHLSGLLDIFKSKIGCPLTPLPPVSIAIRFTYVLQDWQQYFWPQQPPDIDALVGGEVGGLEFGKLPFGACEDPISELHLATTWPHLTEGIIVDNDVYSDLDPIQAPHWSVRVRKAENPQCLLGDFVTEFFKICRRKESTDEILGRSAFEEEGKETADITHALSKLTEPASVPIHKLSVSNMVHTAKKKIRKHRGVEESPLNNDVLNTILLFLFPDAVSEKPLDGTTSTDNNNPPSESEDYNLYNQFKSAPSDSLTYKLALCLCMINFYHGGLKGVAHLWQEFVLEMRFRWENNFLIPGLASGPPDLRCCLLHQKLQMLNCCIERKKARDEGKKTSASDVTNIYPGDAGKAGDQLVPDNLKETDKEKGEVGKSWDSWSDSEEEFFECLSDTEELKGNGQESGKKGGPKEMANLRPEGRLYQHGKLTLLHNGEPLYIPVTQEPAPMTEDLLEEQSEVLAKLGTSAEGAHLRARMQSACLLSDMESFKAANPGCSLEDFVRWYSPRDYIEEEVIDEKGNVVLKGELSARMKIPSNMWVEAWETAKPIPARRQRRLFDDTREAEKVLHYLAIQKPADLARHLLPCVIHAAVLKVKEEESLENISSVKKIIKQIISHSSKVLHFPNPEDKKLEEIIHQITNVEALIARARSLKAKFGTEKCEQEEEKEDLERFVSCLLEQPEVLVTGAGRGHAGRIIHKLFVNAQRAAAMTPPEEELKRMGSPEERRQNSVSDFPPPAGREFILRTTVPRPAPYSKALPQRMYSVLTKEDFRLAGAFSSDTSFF
UniProt Q9Y3P9: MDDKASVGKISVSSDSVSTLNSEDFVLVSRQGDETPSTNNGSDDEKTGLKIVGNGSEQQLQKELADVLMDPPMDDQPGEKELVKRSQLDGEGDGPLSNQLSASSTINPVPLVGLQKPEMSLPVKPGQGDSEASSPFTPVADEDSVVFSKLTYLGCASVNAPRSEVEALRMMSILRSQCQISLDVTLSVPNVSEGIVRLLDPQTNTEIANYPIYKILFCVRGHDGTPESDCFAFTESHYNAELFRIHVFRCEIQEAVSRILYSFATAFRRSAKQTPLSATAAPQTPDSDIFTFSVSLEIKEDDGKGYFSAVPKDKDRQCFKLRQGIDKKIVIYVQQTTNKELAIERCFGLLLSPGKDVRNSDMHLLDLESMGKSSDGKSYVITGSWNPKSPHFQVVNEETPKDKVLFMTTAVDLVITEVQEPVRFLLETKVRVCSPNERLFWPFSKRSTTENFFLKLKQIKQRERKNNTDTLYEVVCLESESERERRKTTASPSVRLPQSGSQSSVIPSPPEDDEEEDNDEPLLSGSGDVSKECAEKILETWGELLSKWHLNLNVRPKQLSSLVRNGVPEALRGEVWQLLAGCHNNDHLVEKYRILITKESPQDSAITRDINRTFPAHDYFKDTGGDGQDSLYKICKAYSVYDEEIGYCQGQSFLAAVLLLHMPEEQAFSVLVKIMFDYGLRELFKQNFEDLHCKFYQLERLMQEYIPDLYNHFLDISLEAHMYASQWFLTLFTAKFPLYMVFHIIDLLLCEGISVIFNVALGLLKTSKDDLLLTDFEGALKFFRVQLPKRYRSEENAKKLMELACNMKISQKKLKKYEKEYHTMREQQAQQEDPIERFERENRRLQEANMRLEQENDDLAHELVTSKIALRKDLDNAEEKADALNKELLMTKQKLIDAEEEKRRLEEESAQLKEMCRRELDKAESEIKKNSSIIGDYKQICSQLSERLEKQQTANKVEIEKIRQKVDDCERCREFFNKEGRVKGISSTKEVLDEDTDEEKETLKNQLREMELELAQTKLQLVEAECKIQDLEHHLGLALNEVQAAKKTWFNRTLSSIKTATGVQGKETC
UniProt P61019: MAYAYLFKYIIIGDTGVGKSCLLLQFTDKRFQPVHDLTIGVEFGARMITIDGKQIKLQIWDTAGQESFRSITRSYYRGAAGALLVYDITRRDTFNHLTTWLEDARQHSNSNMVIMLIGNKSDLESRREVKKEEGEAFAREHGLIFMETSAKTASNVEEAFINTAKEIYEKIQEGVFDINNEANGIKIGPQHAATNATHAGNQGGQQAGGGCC

Key:
[1] = compound: ClCC(=O)N[C@@H]1CCCc2ccccc12; test: log2 mean competition ratio of IA-DTB cysteine labelling (DMSO/compound) (log2 ratio); higher = stronger cysteine engagement by compound; conditions: treatment time: 4 h, cell line lysate: HEK293T
Protocol: (§1)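 IA-DTB competitive cysteine chemoproteomics in HEK293T RIPA lysate. Lysates were treated with compound 29 or 30 at 50 or 200 µM for 4 h, then IA-DTB (500 µM, 1 h), trypsin-digested, NeutrAvidin-enriched and analysed by diaPASEF. Competition ratio = intensity DMSO / intensity compound (n=4 treated, n=64 DMSO); binding: mean log2 CR ≥ 1 and p ≤ 0.05 plus QC filters. Target is the cysteine site.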

[2] = compound: ClCC(=O)N[C@H]1CCCc2ccccc12; test: as above; conditions: treatment time: 4 h, cell line lysate: HEK293T
Protocol: as §1

Target | log2 mean competition ratio ([1]; 50 µM) | log2 mean competition ratio ([1]; 200 µM) | log2 mean competition ratio ([2]; 50 µM) | log2 mean competition ratio ([2]; 200 µM)
PSMC1 C148 | -0.243 | 0.265 | -0.484 | -0.0605
PSMC2 C389 (UniProt P35998) | 0.243 | 0.0622 | 0.215 | 0.0662
R3HDM1 C858 (UniProt Q15032+R3HDM1) | -0.111 | 0.11 | 0.0326 | 0.255
PTGIS C231 | -0.0821 | -0.169 | -0.257 | -0.359
PTBP3 C500 (UniProt O95758) | 0.313 | -0.207 | 0.228 | -0.202
QSER1 C283 | -0.0318 | 0.0844 | -0.172 | 0.0886
PSMD4 C37 | 0.0739 | -0.121 | -0.247 | -0.175
PSMC2 C236 (UniProt P35998) | -0.182 | 0.043 | 0.276 | 0.396
PTPDC1 C551 (UniProt A2A3K4) | 0.131 | 0.191 | 0.15 | 0.205
PURB C17 (UniProt Q96QR8) | 0.0252 | -0.191 | -0.0564 | -0.0269
RAD21 C392 (UniProt O60216) | 0.187 | -0.191 | 0.00659 | -0.0332
RAB3B C184 (UniProt P20337) | -0.122 | -0.0829 | 0.0301 | -0.0416
RAB3GAP1 C693 (UniProt Q15042) | -0.145 | -0.176 | -0.434 | -0.098
PRRC2B C868 | 0.38 | 0.131 | 0.00608 | -0.0856
PWWP3A C228 | -0.282 | -0.329 | -0.0691 | -0.509
RABGAP1 C433 (UniProt Q9Y3P9) | -0.0193 | -0.149 | 0.269 | -0.0725
RAB2A C21 (UniProt P61019) | 0.326 | 0.237 | -0.0647 | 0.0464

Pulled one by one from the entries so far:
Target | log2 mean competition ratio ([1]; 50 µM) | log2 mean competition ratio ([1]; 200 µM) | log2 mean competition ratio ([2]; 50 µM) | log2 mean competition ratio ([2]; 200 µM)
PURB C17 (UniProt Q96QR8) | 0.0252 | -0.191 | -0.0564 | -0.0269
PTBP3 C500 (UniProt O95758) | 0.313 | -0.207 | 0.228 | -0.202
